Results are given in words; binding and its absence hold for the method and conditions named. Some results given as binding are weak or reduced against the parent protein; the word gives no strength. Where a sequence is shown, tags or fusion partners need not be part of it.
Target: Glycinamide-RNase-transformylase T from Mycobacterium tuberculosis (Mycobacterium tuberculosis H37Rv) (UniProt A5TZB5)
Test: crystal structure; both purified

B1: Glycinamide-RNase-transformylase T from Mycobacterium tuberculosis (enzyme)
chain: MIDGWTEEQHEPTVRHERPAAPQDVRRVMLLGSAEPSRELAIALQGLGAEVIAVDGYVGAPAHRIADQSVVVTMTDAEELTAVIRRLQPDFLVTVTAAVSVDALDAVEQADGECTELVPNARAVRCTADREGLRRLAADQLGLPTAPFWFVGSLGELQAVAVHAGFPLLVSPVAGVAGQGSSVVAGPNEVEPAWQRAAGHQVQPQTGGVSPRVCAESVVEIEFLVTMIVVCSQGPNGPLIEFCAPIGHRDADAGELESWQPQKLSTAALDAAKSIAARIVKALGGRGVFGVELMINGDEVYFADVTVCPAGSAWVTVRSQRLSVFELQARAILGLAVDTLMISPGAARVINPDHTAGRAAVGAAPPADALTGALGVPESDVVIFGRGLGVALATAPEVAIARERAREVASRLNVPDSRE
notes: also called MtbPurT; PurT
binding: binds

Reference: paper PMC6968694 (Emerging Microbes & Infections, 2020)
